No constants are given. Whether binding was seen depends on the method and setting. Binding seen in cells or lysates may run through a third protein. Some binding calls cover weakened binding; strength is not graded here.
Target: LDL receptor-related protein 1 (LRP1), endogenous mouse (mouse (endogenous in primary brain endothelial cells and brain sections)) (UniProt Q91ZX7)
Test: co-IP; mouse primary brain endothelial cells co-cultured with astrocytes and pericytes in a transwell format for 3 days; lysed in PLC lysis buffer; anti-LRP1 antibody 90 min on ice, Protein A-Sepharose 4B 30 min at 4 °C; washed twice with HNTG; gradient SDS-PAGE, immunoblot

Protein sequences, listed by entry. Tags and fused reporters are not part of them. Residues count along the entry.
UniProt Q91ZX7, residues 20-4545: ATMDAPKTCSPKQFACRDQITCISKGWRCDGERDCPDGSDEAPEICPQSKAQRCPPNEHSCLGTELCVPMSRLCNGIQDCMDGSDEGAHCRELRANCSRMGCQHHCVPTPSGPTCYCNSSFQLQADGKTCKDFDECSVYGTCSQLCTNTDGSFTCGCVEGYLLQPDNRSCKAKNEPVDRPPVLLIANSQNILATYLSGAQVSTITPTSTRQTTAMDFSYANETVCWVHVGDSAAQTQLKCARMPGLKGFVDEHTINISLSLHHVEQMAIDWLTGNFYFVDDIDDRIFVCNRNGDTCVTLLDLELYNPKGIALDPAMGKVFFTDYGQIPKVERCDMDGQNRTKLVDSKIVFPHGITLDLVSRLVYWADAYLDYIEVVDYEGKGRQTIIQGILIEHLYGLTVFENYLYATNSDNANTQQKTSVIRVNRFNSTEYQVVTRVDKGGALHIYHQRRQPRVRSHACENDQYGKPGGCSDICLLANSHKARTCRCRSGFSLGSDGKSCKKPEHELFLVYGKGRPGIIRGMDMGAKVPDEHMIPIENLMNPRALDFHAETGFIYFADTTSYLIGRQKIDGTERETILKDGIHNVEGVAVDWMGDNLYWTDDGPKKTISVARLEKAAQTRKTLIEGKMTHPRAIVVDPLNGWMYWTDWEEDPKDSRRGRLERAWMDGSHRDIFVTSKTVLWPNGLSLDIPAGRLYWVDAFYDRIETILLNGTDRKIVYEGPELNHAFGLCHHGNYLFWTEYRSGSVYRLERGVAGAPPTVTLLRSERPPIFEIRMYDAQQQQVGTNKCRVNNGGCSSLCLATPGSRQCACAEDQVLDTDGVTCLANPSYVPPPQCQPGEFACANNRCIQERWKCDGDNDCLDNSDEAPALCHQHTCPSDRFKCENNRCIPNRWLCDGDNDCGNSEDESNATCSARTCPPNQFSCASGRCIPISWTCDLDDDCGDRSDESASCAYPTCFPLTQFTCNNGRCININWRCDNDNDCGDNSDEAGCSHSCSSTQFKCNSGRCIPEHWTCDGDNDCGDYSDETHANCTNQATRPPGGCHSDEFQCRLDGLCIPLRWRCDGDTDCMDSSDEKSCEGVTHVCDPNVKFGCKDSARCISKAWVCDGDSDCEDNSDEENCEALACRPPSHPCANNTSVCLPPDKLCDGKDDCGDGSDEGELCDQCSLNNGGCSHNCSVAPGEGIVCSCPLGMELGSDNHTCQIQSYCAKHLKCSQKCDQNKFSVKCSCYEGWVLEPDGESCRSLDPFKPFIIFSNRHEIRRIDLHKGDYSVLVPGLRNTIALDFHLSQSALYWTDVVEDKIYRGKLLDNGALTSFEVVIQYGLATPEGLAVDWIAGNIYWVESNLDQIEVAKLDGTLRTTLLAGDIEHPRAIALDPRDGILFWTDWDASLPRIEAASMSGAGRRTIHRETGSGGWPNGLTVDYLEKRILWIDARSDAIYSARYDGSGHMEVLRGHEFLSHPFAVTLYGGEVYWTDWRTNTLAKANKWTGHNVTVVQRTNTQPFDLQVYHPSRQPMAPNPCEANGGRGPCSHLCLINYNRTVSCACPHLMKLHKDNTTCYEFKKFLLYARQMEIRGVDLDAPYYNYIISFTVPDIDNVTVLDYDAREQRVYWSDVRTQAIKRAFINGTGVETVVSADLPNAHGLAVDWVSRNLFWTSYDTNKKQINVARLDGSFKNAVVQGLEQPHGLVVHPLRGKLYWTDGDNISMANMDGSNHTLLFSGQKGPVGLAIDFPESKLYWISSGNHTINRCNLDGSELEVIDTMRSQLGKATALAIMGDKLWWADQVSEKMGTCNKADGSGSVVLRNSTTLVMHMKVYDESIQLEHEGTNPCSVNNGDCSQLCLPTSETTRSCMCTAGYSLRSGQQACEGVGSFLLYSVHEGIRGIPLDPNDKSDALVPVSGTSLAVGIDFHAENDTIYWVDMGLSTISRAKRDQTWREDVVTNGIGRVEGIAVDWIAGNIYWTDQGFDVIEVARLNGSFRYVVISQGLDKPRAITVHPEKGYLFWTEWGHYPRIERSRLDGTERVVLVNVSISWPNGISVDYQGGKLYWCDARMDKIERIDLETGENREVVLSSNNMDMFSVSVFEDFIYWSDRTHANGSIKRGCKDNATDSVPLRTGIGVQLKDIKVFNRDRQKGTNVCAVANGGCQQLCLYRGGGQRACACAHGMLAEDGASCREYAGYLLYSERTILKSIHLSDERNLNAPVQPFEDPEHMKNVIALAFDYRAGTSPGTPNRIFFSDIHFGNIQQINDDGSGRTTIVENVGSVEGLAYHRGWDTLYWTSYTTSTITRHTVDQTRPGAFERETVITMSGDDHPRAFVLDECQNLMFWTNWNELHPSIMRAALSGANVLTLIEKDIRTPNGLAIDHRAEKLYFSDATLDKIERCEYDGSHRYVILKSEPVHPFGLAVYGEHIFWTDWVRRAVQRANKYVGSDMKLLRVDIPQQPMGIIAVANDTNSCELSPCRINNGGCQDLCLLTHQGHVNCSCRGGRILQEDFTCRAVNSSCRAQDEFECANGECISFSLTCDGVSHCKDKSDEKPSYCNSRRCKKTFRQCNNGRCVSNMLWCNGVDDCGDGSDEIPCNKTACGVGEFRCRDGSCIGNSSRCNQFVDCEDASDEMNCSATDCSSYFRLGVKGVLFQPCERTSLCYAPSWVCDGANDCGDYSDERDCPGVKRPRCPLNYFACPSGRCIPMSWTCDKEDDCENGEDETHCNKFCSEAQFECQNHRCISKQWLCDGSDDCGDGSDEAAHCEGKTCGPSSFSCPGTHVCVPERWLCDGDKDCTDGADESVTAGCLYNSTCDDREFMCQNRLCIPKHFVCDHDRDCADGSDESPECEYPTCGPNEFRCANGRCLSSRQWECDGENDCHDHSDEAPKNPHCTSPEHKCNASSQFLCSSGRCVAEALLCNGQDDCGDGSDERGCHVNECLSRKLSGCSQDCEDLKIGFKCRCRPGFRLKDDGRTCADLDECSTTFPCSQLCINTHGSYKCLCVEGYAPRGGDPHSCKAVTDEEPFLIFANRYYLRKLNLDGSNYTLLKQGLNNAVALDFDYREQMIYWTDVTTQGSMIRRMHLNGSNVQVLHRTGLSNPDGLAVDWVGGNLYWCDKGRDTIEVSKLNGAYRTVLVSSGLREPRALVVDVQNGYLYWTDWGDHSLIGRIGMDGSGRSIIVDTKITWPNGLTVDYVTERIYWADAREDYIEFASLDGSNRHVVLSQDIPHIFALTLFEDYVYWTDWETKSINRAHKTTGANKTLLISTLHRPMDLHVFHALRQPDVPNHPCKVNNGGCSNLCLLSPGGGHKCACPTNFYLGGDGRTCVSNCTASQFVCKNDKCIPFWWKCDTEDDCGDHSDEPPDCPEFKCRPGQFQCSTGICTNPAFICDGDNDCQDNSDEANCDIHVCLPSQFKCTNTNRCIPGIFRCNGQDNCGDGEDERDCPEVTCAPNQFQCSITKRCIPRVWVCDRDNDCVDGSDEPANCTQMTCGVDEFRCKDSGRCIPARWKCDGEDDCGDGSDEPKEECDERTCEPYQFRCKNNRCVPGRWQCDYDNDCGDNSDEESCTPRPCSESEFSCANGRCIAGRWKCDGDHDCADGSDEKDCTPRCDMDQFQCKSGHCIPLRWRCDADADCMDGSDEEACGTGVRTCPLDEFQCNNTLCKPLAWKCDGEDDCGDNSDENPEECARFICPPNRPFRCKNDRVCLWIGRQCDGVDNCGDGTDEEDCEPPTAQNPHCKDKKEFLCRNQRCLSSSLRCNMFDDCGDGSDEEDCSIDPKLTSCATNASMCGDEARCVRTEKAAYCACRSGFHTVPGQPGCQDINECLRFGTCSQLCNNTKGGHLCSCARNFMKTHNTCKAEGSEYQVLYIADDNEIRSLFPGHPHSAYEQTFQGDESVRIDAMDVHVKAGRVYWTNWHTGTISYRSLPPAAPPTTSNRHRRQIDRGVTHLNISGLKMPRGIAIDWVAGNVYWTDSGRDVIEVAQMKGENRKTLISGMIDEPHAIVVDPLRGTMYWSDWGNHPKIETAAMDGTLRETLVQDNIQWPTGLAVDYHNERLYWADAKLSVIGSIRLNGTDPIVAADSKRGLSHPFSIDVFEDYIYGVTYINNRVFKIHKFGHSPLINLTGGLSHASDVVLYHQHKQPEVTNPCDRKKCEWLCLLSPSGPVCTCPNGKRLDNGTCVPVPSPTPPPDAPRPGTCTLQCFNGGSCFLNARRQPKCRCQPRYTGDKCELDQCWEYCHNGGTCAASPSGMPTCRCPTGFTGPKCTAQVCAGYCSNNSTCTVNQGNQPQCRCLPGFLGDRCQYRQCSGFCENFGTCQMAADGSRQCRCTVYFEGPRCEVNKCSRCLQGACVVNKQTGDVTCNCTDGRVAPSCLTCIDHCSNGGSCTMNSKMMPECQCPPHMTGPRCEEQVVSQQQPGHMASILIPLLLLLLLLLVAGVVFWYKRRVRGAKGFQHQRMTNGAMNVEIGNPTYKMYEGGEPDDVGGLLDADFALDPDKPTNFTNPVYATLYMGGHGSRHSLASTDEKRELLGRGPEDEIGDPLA

B1: ankyrin repeat and SAM domain containing 1A (ANKS1A), endogenous mouse (protein, UniProt P59672 1-1150)
chain: MGKEQELLEAARTGHLPAVEKLLSGKRLSSGFGGGGGGSGSGGGSGGGGLGSSSHPLSSLLSMWRGPNVNCVDSTGYTPLHHAALNGHRDVVEVLLRNDALTNVADSKGCYPLHLAAWKGDAQIVRLLIQQGPSHTRVNEQNALEIRELKKYGPFDPYINAKNNDNETALHCAAQYGHTEVVKALLEELTDPTMRNNKFETPLDLAALYGRLEVVKLLLGAHPNLLSCSTRKHTPLHLAARNGHKAVVQVLLDAGMDSNYQTEMGSALHEAALFGKTDVVQILLAAGIDVNIKDNRGLTALDTVRDLPSQKSQQIAALIEDHMTGKRSVKEVDRTSTAQLPLLSNTDAIAPMSQGSMEKTVTELILHFDTHADEEGPYEALYNAVSCHSLDSTASGRSSDRDSMNKEAEATGTRAAGVRPRERPPPPAKPPPDEEEEERVDKKYFPLAASEGLAVRPRIQSSAPQEEEEHPYELLLTAETKKLGTTDGRTEDHRQSGSGRSQDSVEGQDGQVPEQFSGLLHGSSPVCEVGQDPFQLLTAPSQSHPESSQQDACHEASMQLEEPGVQGTEPPQPGVPDQSKRVGLPAGLTALASRTYLDALTHTVPLRPAGAEEEDQSGPRSRAPPTSKPKAELKLSRSLSKSDSDLLTCSPTEDATMGSRSESLSNCSIGKKRLEKSPSFASEWDEIEKIMSSIGEGIDFSQEQQKISGSRTLEQSVGEWLESIGLQQYESKLLLNGFDDVRFLGSNVMEEQDLREIGISDPQHRRKLLQAARSLPKVKALGYDGVSPTSVPSWLDSLGLQDYVHSFLSSGYSSIDTVKNLWELELVNVLKVHLLGHRKRIIASLADRPYEEPPQKPPRFSQLRCQDLISQTSSPLSQNDSCTGRSADLLLPSADTSRRRHDSLPDPGTASRADRFRVQEEPSETKLTLRPPSLAAPYAPVQSWQHQPEKLIFESCGYEANYLGSMLIKDLRGTESTQDACAKMRKSTEHMKKIPTIILSITYKGVKFIDASNKNVIAEHEIRNISCAAQDPEDLCTFAYITKDLQTSHHYCHVFSTVDVNLTYEIILTLGQAFEVAYQLALQAQKSRTMAASAASMIETKSSKPVPKPRVGMRKSALEPPDSDQEAPSHASVSWIVDPKPDSKRSLSTN
- binding: binds

Source: paper PMC10733300, “ANKS1A regulates LDL receptor-related protein 1 (LRP1)-mediated cerebrovascular clearance in brain endothelial cells” (Nature Communications, 2023)
